Publication PMC12592336
No constants are given. Whether binding was seen depends on the method and setting. In cells and extracts the contact can be indirect.

Amino acid sequences for entries named in this document (tags omitted). A change or cut given only in a name is not applied to a line headed by its entry.
UniProt P60953: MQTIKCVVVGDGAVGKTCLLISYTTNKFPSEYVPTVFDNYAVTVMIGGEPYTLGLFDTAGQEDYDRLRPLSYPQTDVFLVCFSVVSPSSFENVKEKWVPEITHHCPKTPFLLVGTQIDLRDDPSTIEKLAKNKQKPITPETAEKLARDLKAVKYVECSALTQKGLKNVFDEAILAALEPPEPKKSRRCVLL

Legend:
Assay in all cases: co-IP; anti-Flag beads on NP-40 lysates (50 mM Tris-HCl pH 8.0, 150 mM NaCl, 1% NP-40) of HepG2-NTCP CDC42-WT, CDC42-CA and CDC42-DN cells, 4 °C overnight; blots for NTCP and Rab11
[1] = molecular target: Flag-tagged constitutively active CDC42 (CA, G12V) (human) (UniProt P60953)
[2] = molecular target: Flag-tagged dominant-negative CDC42 (DN, T17D) (human) (UniProt P60953)
[3] = molecular target: Flag-tagged wild-type CDC42 (human) (UniProt P60953)

Measured: binding

B1: sodium taurocholate co-transporting polypeptide (NTCP) (receptor, UniProt Q14973 1-349)
chain: MEAHNASAPFNFTLPPNFGKRPTDLALSVILVFMLFFIMLSLGCTMEFSKIKAHLWKPKGLAIALVAQYGIMPLTAFVLGKVFRLKNIEALAILVCGCSPGGNLSNVFSLAMKGDMNLSIVMTTCSTFCALGMMPLLLYIYSRGIYDGDLKDKVPYKGIVISLVLVLIPCTIGIVLKSKRPQYMRYVIKGGMIIILLCSVAVTVLSAINVGKSIMFAMTPLLIATSSLMPFIGFLLGYVLSALFCLNGRCRRTVSMETGCQNVQLCSTILNVAFPPEVIGPLFFFPLLYMIFQLGEGLLLIAIFWCYEKFKTPKDKTKMIYTAATTEETIPGALGNGTYKGEDCSPCTA
no binding: all assays above
